Results deposited as PubChem BioAssay AID1508597 (Cure First, 2020).
Screen: 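Genes whose silencing sensitises or protects ovarian cancer cells against rucaparib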 (primary screen). Cells: human ovarian carcinoma lines grown from tumours: OCI-P5x (papillary serous) and OCI-C5x (clear cell). Reagent: siRNA pool against human genes, 1.25 pmol siRNA per well. Timing: 72 h or 96 h, depending on the cell culture. Treatment: rucaparib 20 µM (about IC30) or vehicle, present until read-out. Rucaparib or vehicle: Vehicle. Cell line: OCI-C5x (clear cell). Measurement: 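Luminescent ATP-based viability assay read 72 or 96 h after transfection, depending on culture, given as normalised percent viability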. Scale: viability, normalised: higher = more viable cells remaining. Hit rule: 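Active when normalised viability falls below 80 percent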. Meaning of the calls: active = viability under 80%; inactive = viability 80% or more.
This is an unselected part of the about 2,100 reagents, under one of the conditions tested. 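Calls flag viability under 80% in either arm, not effects specific to rucaparib; the reference for percent is not stated.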 A reagent listed more than once was tested more than once; the source does not tell the runs apart. Not stated in the record: the 100% reference.

| target gene | technical replicate | viability, normalised (%) | activity call |
| --- | --- | --- | --- |
| FAM91A1 | 1 | 72.9 | active |
| FAM91A1 | 2 | 62.7 | active |
| FAM91A1 | 3 | 84.7 | inactive |
| KDM1A | 1 | 49.7 | active |
| KDM1A | 2 | 57.7 | active |
| KDM1A | 3 | 61.2 | active |
| RBM10 | 1 | 56.1 | active |
| RBM10 | 2 | 44.2 | active |
| RBM10 | 3 | 38 | active |
| CDKL5 | 1 | 72.6 | active |
| CDKL5 | 2 | 63.8 | active |
| CDKL5 | 3 | 71.7 | active |
| ATR | 1 | 59.5 | active |
| ATR | 1 | 72.7 | active |
| ATR | 2 | 54 | active |
| ATR | 2 | 50.2 | active |
| ATR | 3 | 58.3 | active |
| ATR | 3 | 60.2 | active |
| MAT2A | 1 | 43.5 | active |
| MAT2A | 2 | 45.1 | active |
| MAT2A | 3 | 40.5 | active |
| CSNK1G1 | 1 | 56.8 | active |
| CSNK1G1 | 2 | 42.9 | active |
| CSNK1G1 | 3 | 35 | active |
| GLI3 | 1 | 57.8 | active |
| GLI3 | 2 | 62.3 | active |
| GLI3 | 3 | 75.9 | active |
| MPP1 | 1 | 78.7 | active |
| MPP1 | 2 | 71.2 | active |
| MPP1 | 3 | 63.1 | active |
| RPS6KC1 | 1 | 56.5 | active |
| RPS6KC1 | 2 | 71.4 | active |
| RPS6KC1 | 3 | 59.7 | active |

8 entries already listed, sorted by “viability, normalised (%)”, ascending:
| target gene | technical replicate | viability, normalised (%) | activity call |
| --- | --- | --- | --- |
| RBM10 | 3 | 38 | active |
| RBM10 | 2 | 44.2 | active |
| RBM10 | 1 | 56.1 | active |
| KDM1A | 2 | 57.7 | active |
| KDM1A | 3 | 61.2 | active |
| CDKL5 | 2 | 63.8 | active |
| CDKL5 | 3 | 71.7 | active |
| CDKL5 | 1 | 72.6 | active |

The results go on.
| target gene | technical replicate | viability, normalised (%) | activity call |
| --- | --- | --- | --- |
| PDE3A | 1 | 57.1 | active |
| PDE3A | 2 | 64.6 | active |
| PDE3A | 3 | 57.7 | active |
| PRMT7 | 1 | 47.8 | active |
| PRMT7 | 2 | 36.2 | active |
| PRMT7 | 3 | 53.7 | active |
| STYK1 | 1 | 46.7 | active |
| STYK1 | 2 | 54.5 | active |
| STYK1 | 3 | 56.2 | active |
| DDX3Y | 1 | 46.5 | active |
| DDX3Y | 2 | 57.1 | active |
| DDX3Y | 3 | 34 | active |
| BAHD1 | 1 | 32.8 | active |
| BAHD1 | 2 | 47.2 | active |
| BAHD1 | 3 | 44 | active |
| BRD7 | 1 | 58.3 | active |
| BRD7 | 2 | 61.4 | active |
| BRD7 | 3 | 43.2 | active |
| WNK3 | 1 | 69.3 | active |
| WNK3 | 2 | 60.6 | active |
| WNK3 | 3 | 60.5 | active |
| NEIL3 | 1 | 58.6 | active |
| NEIL3 | 2 | 52.5 | active |
| NEIL3 | 3 | 38 | active |
